Where a name gives a salt, the structure may show the parent alone. Read-outs that look alike come from different tables or passages of the source. Hit rate of the full screen: of about 5,300 compounds, about 130 (2.5%) showed an effect of 50% or more. This is one part of the list. Peptide text beside a SMILES is read from it. * marks the point of attachment. Cbz = O=C(OCc1ccccc1)*
Tested on: M. mycetomatis strain mm55
Settings: primary screen, metabolic activity vs growth control, 96 h, 2 µM, inhibitor

Row | SMILES | % viability [%] | % viability (Madurella mycetomatis metabolic activity at 2µM (%)) [%]
1 | Oc1cc(Cl)ccc1Oc1ccc(Cl)cc1Cl [ONC0004211, triclosan] | 105.1 | 
2 | CN(C)CCc1c[nH]c2ccc(Cn3cncn3)cc12 [ONC0004846, rizatriptan benzoate maxalt] | 110.8 | 
3 | CC(C)(C)NCc1cc(Nc2ccnc3cc(Cl)ccc23)c2c(c1O)CCCC2 [ONC0002209, naphthoquine phosphate] | 128.7 | 
4 | OCCN1CCN(CCCN2c3ccccc3Sc3ccc(Cl)cc32)CC1 [ONC0002396, perphenazine] | 90.87 | 
5 | C=CC1=C(C)c2cc3[nH]c(cc4nc(cc5[nH]c(cc1n2)c(C)c5CCC(=O)O)C(CCC(=O)OC)=C4C)[C@@]1(C)C3=CC=C(C(=O)OC)[C@H]1C(=O)OC [ONC0001491, verteporfin] | 55.47 | 
6 | OC[C@H]1O[C@@H](Oc2ccc(O)cc2)[C@H](O)[C@@H](O)[C@@H]1O [ONC0005232, arbutin uva parbutin] | 106.2 | 
7 | O=C(c1ccc(C(=O)N2CCC(N3CCCC3)CC2)c(Nc2ccccc2)c1)N1CCC(N2CCCC2)CC1 [ONC0004329, unc1215] | 110.8 | 
8 | N#CCC1(n2cc(-c3ncnc4[nH]ccc34)cn2)CN(C2CCN(C(=O)c3ccnc(C(F)(F)F)c3F)CC2)C1 [ONC0002059, itacitinib] | 75.61 | 
9 | Nc1ccc(S(=O)(=O)c2ccc(N)cc2)cc1 [ONC0000297, dapsone] | 73.16 | 
10 | O=Nc1ccc(O)c2ncccc12 [ONC0003663, nsc3852] | 78.63 | 
11 | Nc1ccc(C(=O)NCC(=O)O)cc1 [ONC0002867, aminohippuric acid] | 94.65 | 
12 | COc1ccc(NS(=O)(=O)c2ccc(N)cc2)nn1 [ONC0000622, sulfamethoxypyridazine] | 113.3 | 
13 | COc1ncc2cc(C(=O)Nc3cc(C(=O)NCc4cccc(Cl)c4)ccc3Cl)c(=O)[nH]c2n1 [ONC0003104, tcs7004] | 76.63 | 
14 | CCCC(=O)O[C@]1(C(=O)COC(C)=O)CC[C@H]2[C@@H]3C[C@H](F)C4=CC(=O)C=C[C@]4(C)[C@@]3(F)[C@@H](O)C[C@@]21C [ONC0004400, difluprednate] | 133.8 | 
15 | Fc1ccc(-c2nc3n(c2-c2ccncc2)CCS3)cc1 [ONC0000111, skf86002] | 90.99 | 
16 | CCC[C@H](N[C@@H](C)C(=O)N1[C@H](C(=O)O)C[C@@H]2CCCC[C@@H]21)C(=O)OCC [ONC0004265, perindopril erbumine] | 73.43 | 
17 | Cn1nnnc1SCC1=C(C(=O)O)N2C(=O)[C@@H](NC(=O)[C@H](O)c3ccccc3)[C@H]2SC1 [ONC0005600, cefamandole] | 70.73 | 
18 | Cn1ncc(Cl)c1-c1cc(C(=O)N[C@H](CN)Cc2ccc(F)c(F)c2)oc1Cl [ONC0001786, uprosertib] | 116.1 | 
19 | CCCCNNC(=O)c1ccc(Br)cc1 [ONC0003096, uf010] | 92.32 | 
20 | N#Cc1c(N)nc(SCc2csc(-c3ccc(Cl)cc3)n2)c(C#N)c1-c1ccc(OCCO)cc1 [ONC0002037, capadenoson] | 95.6 | 
21 | CC1(C)OC(=O)NC1=O [ONC0000704, dimethadione] | 116.2 | 

Quoted at random: two compounds from above
Row | SMILES | % viability [%] | % viability (Madurella mycetomatis metabolic activity at 2µM (%)) [%]
1 | Oc1cc(Cl)ccc1Oc1ccc(Cl)cc1Cl [ONC0004211, triclosan] | 105.1 | 
14 | CCCC(=O)O[C@]1(C(=O)COC(C)=O)CC[C@H]2[C@@H]3C[C@H](F)C4=CC(=O)C=C[C@]4(C)[C@@]3(F)[C@@H](O)C[C@@]21C [ONC0004400, difluprednate] | 133.8 | 

More results.

Row | SMILES | % viability [%] | % viability (Madurella mycetomatis metabolic activity at 2µM (%)) [%]
22 | On1ncc(C2CCNCC2)c1-c1cccc(-c2ccccc2)c1 [ONC0002501, php501 trifluoroacetate] | 45.31 | 
23 | C[C@H](Nc1ncnc2[nH]cnc12)c1nc2ccc(F)cc2c(=O)n1-c1ccccc1 [ONC0001064, acalisib] | 63.52 | 
24 | CN(C)c1ccc(-c2nc3c(N4CCN(CC(=O)Nc5nccs5)CC4)c(Cl)cnc3[nH]2)cc1 [ONC0004963, cct129202] | 95.03 | 
25 | Cc1ncc(CSSCc2cnc(C)c(O)c2CO)c(CO)c1O [ONC0003982, pyritinol] | 71.7 | 
26 | CC(C)(C#N)c1ccc(N2C(=O)OCc3cnc4ccc(-c5cnc6ccccc6c5)cc4c32)cc1 [ONC0004523, etp46464] | 59.45 | 
27 | O=C(O)[C@H](Cc1ccc(Nc2nccc3ccncc23)cc1)NC1=C(Br)C(=O)C12CCCCC2 [ONC0000960, zaurategrast] | 60.06 | 
28 | CCN(CC)Cc1ccc2cc(COC(=O)Nc3ccc(C(=O)NO)cc3)ccc2c1 [ONC0004762, itf2357 givinostat] | 92.61 | 
29 | CCOC(=O)c1ccc(OCCC2CCN(c3ccc(C)nn3)CC2)cc1 [ONC0001128, pirodavir] | 72 | 
30 | CCOC(=O)[C@H](Cc1ccc([N+](=O)[O-])cc1)NC(=O)c1ccccc1 [ONC0001444, sb297006] | 60.86 | 
31 | CC(C)C[C@@H](C=O)NC(=O)[C@H](CC(C)C)NC(=O)[C@H](CC(C)C)NC(=O)OCc1ccccc1 [ONC0005043, mg132] (Cbz-Leu-Leu-Leu-aldehyde) | 69.11 | 
32 | Fc1ccccc1-c1nc2ccn(Cc3ccc(-c4ccc(C(F)(F)F)cc4C(F)(F)F)nn3)cc-2n1 [ONC0000793, tegobuvir] | 88.73 | 
33 | Oc1cccc(Nc2ccc(Nc3cccc(O)c3)nn2)c1 [ONC0002962, 363hydroxyphenylaminopyridazin3ylaminophenol] | 67.52 | 
34 | CCN(CC)CCOc1ccc(Cc2ccccc2)cc1 [ONC0000853, dppe] | 85.58 | 
35 | O=c1c(O)c(-c2cc(O)c(O)c(O)c2)oc2cc(O)cc(O)c12 [ONC0005243, myricetin cannabiscetin] | 113.8 | 
36 | COCc1nnc(N2CC(Oc3ccc(F)cc3Cl)C2)n1-c1ccc(OC)nc1 [ONC0002476, cligosiban] | 70.11 | 
37 | c1ccc(C(NCCNC(c2ccccc2)c2ccccc2)c2ccccc2)cc1 [ONC0003527, amn082] | 180.9 | 
38 | COc1ccc(OC)c(CN(C(C)=O)c2cc(F)ccc2Oc2ccccc2)c1 [ONC0001117, daa1106] | 88.28 | 
39 | CCCCCCCCCCCCCCCC(=O)OCCC1CCN(CCCN2c3ccccc3Sc3ccc(S(=O)(=O)N(C)C)cc32)CC1 [ONC0005423, pipotiazinepalmitate] | 69.49 | 
40 | Cc1ccc(S(=O)(=O)NC(=O)NN2CC3CCCC3C2)cc1 (centres unmarked) [ONC0002433, gliclazide] | 117.1 | 
41 | CCC(C)C(C(=O)OCC[N+](C)(CC)CC)c1ccccc1 (centres unmarked) [ONC0002162, valethamate] | 73.33 | 
42 | CN(C)Cc1cccc(N/C(=C2\C(=O)Nc3cc(C(=O)N(C)C)ccc32)c2ccccc2)c1 [ONC0002568, bix02189] | 85.62 | 

Row | SMILES | % viability [%] | % viability (Madurella mycetomatis metabolic activity at 2µM (%)) [%]
43 | CCCC[C@@H](C=O)NC(=O)[C@H](CC(C)C)NC(=O)OCc1ccccc1 [ONC0000877, calpeptin] | 53.62 | 
44 | Cc1ccc(NC(=O)c2ccc(CN3CCN(C)CC3)cc2)cc1Nc1nc(-c2cccnc2)cs1 [ONC0004682, masitinib ab1010] | 91.68 | 
45 | O=C1C=Cc2cc(Br)ccc2C1=O [ONC0003739, bonaphthone] | 107.6 | 
46 | CSCC[C@H](N)C(=O)O [ONC0005517, lmethionine] |  | 102.8
47 | CCn1cc(C(=O)O)c(=O)c2cnc(N3CCNCC3)nc21 [ONC0000661, pipemidic acid] | 96.65 | 
48 | CCC(N)C(O)c1ccc(O)c(O)c1 (centres unmarked) [ONC0002281, ethylnorepinephrine hydrochloride] | 92.57 | 
49 | NCCS(=O)(=O)O [ONC0002769, taurine] | 121.9 | 
50 | COc1cc2nc(N3CCN(C(=O)c4ccco4)CC3)nc(N)c2cc1OC [ONC0000524, prazosin hydrochloride] | 68.62 | 
51 | C[C@@H](O[C@H]1OCCN(Cc2nc(O)n(P(=O)(O)O)n2)[C@H]1c1ccc(F)cc1)c1cc(C(F)(F)F)cc(C(F)(F)F)c1 [ONC0004322, fosaprepitant dimeglumine salt] | 108.4 | 
52 | CCCCS(=O)(=O)N[C@@H](Cc1ccc(OCCCCC2CCNCC2)cc1)C(=O)O [ONC0001987, tirofibanhcl monohydrate] | 99.93 | 
53 | CCCN(CCC)C1CCc2ccc(O)cc2C1 (centres unmarked) [ONC0002652, 7hydroxydpat] | 61.59 | 
54 | CCCCCCCC/C=C\CCCCCCCC(=O)N[C@@H](CO)Cc1ccc(O)cc1 [ONC0001522, omdm2] | 134.2 | 
55 | Oc1c(I)cc(I)c2cccnc12 [ONC0000463, iodoquinol] | 67.55 | 
56 | C[C@@]1(F)[C@H](O)[C@@H](CO)O[C@H]1n1ccc(N)nc1=O [ONC0000911, psi6130] | 79.14 | 
57 | Cc1nc2c(c(=O)[nH]1)CSCC2 [ONC0003611, dr2313] | 76.12 | 
58 | O=C(CCCN1CC=C(n2c(=O)[nH]c3ccccc32)CC1)c1ccc(F)cc1 [ONC0003169, droperidol] | 91.94 | 
59 | O=C(NO)c1ccc2[nH]c(=O)c(CCCc3ccccc3)nc2c1 [ONC0001692, tcs2210] | 50.56 | 
60 | CCN(CC)CCNC(=O)c1cc(S(C)(=O)=O)ccc1OC [ONC0003135, tiapride hydrochloride] | 96.45 | 
61 | CCn1cc(C(=O)O)c(=O)c2ccc(C)nc21 [ONC0000701, nalidixic acid] | 101.8 | 
62 | COc1ccc(-c2oc3c(CC=C(C)C)c(O[C@@H]4O[C@H](CO)[C@@H](O)[C@H](O)[C@H]4O)cc(O)c3c(=O)c2O[C@@H]2O[C@@H](C)[C@H](O)[C@@H](O)[C@H]2O)cc1 [ONC0004644, icariin] | 67.65 | 
